Results are given in words; binding and its absence hold for the method and conditions named. In cells and extracts the contact can be indirect. Some entries that bind do so weakly or less than the wild type.
B1: Phosphofructokinase Platelet (enzyme, UniProt Q01813 1-784)
chain: MDADDSRAPKGSLRKFLEHLSGAGKAIGVLTSGGDAQGMNAAVRAVVRMGIYVGAKVYFIYEGYQGMVDGGSNIAEADWESVSSILQVGGTIIGSARCQAFRTREGRLKAACNLLQRGITNLCVIGGDGSLTGANLFRKEWSGLLEELARNGQIDKEAVQKYAYLNVVGMVGSIDNDFCGTDMTIGTDSALHRIIEVVDAIMTTAQSHQRTFVLEVMGRHCGYLALVSALACGADWVFLPESPPEEGWEEQMCVKLSENRARKKRLNIIIVAEGAIDTQNKPITSEKIKELVVTQLGYDTRVTILGHVQRGGTPSAFDRILASRMGVEAVIALLEATPDTPACVVSLNGNHAVRLPLMECVQMTQDVQKAMDERRFQDAVRLRGRSFAGNLNTYKRLAIKLPDDQIPKTNCNVAVINVGAPAAGMNAAVRSAVRVGIADGHRMLAIYDGFDGFAKGQIKEIGWTDVGGWTGQGGSILGTKRVLPGKYLEEIATQMRTHSINALLIIGGFEAYLGLLELSAAREKHEEFCVPMVMVPATVSNNVPGSDFSIGADTALNTITDTCDRIKQSASGTKRRVFIIETMGGYCGYLANMGGLAAGADAAYIFEEPFDIRDLQSNVEHLTEKMKTTIQRGLVLRNESCSENYTTDFIYQLYSEEGKGVFDCRKNVLGHMQQGGAPSPFDRNFGTKISARAMEWITAKLKEARGRGKKFTTDDSICVLGISKRNVIFQPVAELKKQTDFEHRIPKEQWWLKLRPLMKILAKYKASYDVSDSGQLEHVQPWSV

Chains of the proteins cited; added tags and fusions are not shown.
UniProt Q3V6T2: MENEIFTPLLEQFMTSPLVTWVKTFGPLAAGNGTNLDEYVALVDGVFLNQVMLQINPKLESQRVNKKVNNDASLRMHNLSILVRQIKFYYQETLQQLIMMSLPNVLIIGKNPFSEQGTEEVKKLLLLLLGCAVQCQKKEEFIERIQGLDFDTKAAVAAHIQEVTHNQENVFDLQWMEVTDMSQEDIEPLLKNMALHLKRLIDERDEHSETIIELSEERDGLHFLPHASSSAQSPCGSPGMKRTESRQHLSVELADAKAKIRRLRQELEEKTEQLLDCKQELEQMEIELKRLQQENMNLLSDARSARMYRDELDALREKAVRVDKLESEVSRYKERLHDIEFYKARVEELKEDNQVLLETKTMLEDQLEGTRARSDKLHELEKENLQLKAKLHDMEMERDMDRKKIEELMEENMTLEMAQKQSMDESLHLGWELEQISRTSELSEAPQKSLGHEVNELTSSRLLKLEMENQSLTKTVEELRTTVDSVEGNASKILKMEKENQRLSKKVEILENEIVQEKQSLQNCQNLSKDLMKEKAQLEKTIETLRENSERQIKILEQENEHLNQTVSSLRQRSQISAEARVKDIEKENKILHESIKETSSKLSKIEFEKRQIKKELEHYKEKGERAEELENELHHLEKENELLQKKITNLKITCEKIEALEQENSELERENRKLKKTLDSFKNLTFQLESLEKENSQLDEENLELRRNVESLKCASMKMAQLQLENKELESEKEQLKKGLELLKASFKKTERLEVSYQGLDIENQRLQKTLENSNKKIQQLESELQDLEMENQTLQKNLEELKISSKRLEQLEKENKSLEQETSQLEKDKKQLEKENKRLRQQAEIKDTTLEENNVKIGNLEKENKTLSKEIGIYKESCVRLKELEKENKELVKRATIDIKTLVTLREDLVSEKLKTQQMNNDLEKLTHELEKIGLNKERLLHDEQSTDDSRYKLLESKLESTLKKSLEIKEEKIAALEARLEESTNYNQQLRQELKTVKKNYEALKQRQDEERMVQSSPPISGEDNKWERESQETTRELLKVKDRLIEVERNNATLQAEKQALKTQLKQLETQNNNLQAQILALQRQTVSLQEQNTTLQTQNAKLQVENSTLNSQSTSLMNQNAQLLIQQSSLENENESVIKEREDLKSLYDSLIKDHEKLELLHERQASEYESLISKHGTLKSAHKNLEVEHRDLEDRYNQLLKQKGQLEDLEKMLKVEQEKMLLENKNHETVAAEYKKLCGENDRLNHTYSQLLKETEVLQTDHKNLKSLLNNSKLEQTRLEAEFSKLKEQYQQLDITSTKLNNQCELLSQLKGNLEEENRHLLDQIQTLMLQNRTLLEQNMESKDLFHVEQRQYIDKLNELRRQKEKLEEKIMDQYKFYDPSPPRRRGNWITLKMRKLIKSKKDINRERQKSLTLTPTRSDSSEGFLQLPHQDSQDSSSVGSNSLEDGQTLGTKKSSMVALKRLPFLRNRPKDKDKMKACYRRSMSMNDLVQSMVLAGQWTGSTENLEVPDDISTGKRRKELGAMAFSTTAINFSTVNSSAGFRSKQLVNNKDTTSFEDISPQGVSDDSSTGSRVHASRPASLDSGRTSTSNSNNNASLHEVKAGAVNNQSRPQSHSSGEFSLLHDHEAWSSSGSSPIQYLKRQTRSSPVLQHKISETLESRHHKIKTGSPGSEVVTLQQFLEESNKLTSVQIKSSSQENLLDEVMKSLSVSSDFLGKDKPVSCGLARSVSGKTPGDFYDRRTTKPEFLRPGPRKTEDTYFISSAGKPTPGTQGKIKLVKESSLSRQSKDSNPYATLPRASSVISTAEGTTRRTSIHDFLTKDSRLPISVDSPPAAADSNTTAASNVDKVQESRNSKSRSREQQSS
UniProt P14618: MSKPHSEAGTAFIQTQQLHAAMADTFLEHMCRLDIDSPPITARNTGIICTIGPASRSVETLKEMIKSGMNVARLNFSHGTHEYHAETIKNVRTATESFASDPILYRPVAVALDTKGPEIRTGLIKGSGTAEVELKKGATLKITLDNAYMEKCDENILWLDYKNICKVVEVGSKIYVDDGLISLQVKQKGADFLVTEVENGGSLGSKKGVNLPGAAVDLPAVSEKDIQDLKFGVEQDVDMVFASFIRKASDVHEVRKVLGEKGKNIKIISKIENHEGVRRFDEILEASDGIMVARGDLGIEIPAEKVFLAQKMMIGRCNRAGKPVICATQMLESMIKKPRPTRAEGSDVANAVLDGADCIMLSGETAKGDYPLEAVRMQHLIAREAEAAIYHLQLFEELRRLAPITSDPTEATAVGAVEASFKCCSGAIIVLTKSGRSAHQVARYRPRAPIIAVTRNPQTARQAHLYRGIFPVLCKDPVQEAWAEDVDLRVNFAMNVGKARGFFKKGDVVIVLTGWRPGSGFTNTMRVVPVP

Experiments:
[1] = target: Girdin (human (endogenous in A549)) (UniProt Q3V6T2); test: co-IP; reciprocal IP in A549 cells with control IgG and anti-Girdin or anti-Flag antibody
[2] = target: Girdin (human (endogenous in A549)) (UniProt Q3V6T2); test: co-IP; co-IP in A549 cells to screen the Girdin-interacting proteins from key enzymes of glycolysis

| Molecule | binding [1] | binding [2] |
| --- | --- | --- |
| pyruvate kinase M2 (from UniProt P14618 1-531) (enzyme) | binds | binds |
| B1 |  | no binding |

— article PMC9688487
